Experimental data: publication PMC8879959, “In Vivo Antistress Effects of Synthetic Flavonoids in Mice: Behavioral and Biochemical Approach” (Molecules, 2022)

Columns and labels:
Format in all cases: in vivo, Balb/C mice
[1] = tested on: mice; assay: Restraint stress, organ weights; details: restraint stress 2 h; flavonoids 10 mg/kg p.o., standard diazepam 2 mg/kg IP, 15 days; mean ± SEM
Text: The adhesive tape was removed, and blood samples were collected. After blood collection, the animals were sacrificed, and the brain and vital organs were isolated and weighed.

[2] = tested on: mice; assay: Biochemical parameters in brain after restraint stress; details: flavonoids 10 mg/kg, standard diazepam 2 mg/kg, 15 days, mean ± SEM
[3] = tested on: acetic acid-induced stress mice; assay: Chemical induced stress (acetic acid model, writhes); details: Mus musculus, ip, 360 h, read-out: Antistress Response (%)
Text: The anti-stress effect of synthesized flavonoids was screened for chemical-induced stress using the acetic acid model. Animals were randomly assigned into two groups of 8. The control group received Tween 80 (2%). […] The treatments in all groups were given persistently for a period of 15 days.

## CN1C(=O)CN=C(c2ccccc2)c2cc(Cl)ccc21 [Standard, Diazepam, reference compound]
[1]
  Weight of Brain: 390.8 ± 2.75 mg
[2]
  Catalase (brain): 17.25 ± 0.66 IU/dL
  SOD (brain): 6.56 ± 0.57 IU/dL
  TBARS (brain lipid peroxidation): 18.22 ± 0.65 nmol/g
[3]
  inhibition in vivo at 2 mg/kg: 91.5%
